Measured values published in US7901894B2, “Kinase inhibitors” (The Research Foundation of State University of New York, priority 1999, dated 2011).
At least one compound was matched to its structure with a doubt left. *1 amine or outer side, *2 acyl side, *3 side chain or, on linkers, in order; H or OH if unused. Where a SMILES comes first, the peptide text is derived from it. [ ]: non-standard residue; d: D form. X3 = NS(=O)(=O)CC[C@H](N[*:1])C(=O)[*:2]

What was measured:
pp60^c-src = pp60^c-src (Homo sapiens, UniProt P12931); assay: src Cellular Mimetic assay (RR-SRC phosphorylation); conditions: ATP increased up to 1 mM
PKA = PKA (Homo sapiens, UniProt P17612); assay: PKA Literature Mimetic assay; format: biochemical; conditions: Ki ratio, Literature Mimetic conditions
Excerpt: The boronic acid inhibitors 21-24 have two Arg residues in their sequence and therefore will bind to the phosphocellulose paper in addition to Kemptamide (although not as consistently or completely due to one less positive charge). Consequently, when analyzed as inhibitors, the amount of phosphorylated Kemptamide produced was not only counted, but also the amount of phosphorylated inhibitor simultaneously produced (e.g. see 26 below). The net result is that distorted IC50 curves are obtained which show net “stimulation” at higher inhibitor concentrations in some cases. […] The underlying substrate behavior of these “inhibitors” makes an accurate measurement of their inhibition potency impossible with the current assay. However, it does appear from the data that homologating/extending the boronic acid functionality with CH2 groups (homologations/extensions with boronic acid non-peptide src inhibitors may also be carried out) decreases the binding affinity and ability of the compound to function as a substrate.

SMILES | mode of inhibition relative to ATP (pp60^c-src) | times less potent than sulfamic acid inhibitor 8 (PKA)
O=S(=O)(O)Nc1ccc2ccccc2c1 | NON-ATP COMPETITIVE | 
CC[C@H](C)[C@H](NC(=O)[C@H](CCS(N)(=O)=O)NC(=O)CNC(=O)[C@H](CCCNC(=N)N)NC(=O)[C@H](CCCNC(=N)N)NC(C)=O)C(N)=O [compound 7, N-(1-carbamoyl-2-methylbutyl)(5-hydroxyindol-2-yl)carboxyamide] (Ac-RRG[X3]I-NH2) |  | 1,875 times
OB(O)c1ccc2ccccc2c1 [drawing 37] | NON-ATP COMPETITIVE | 
